{"source": "PubChem BioAssay AID743448 (Peter MacCallum Cancer Centre, 2014)", "assay": "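Test whether knock-downs sensitising to vorinostat hold across several colon lines but not etoposide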 (follow-up of hits)", "cell system": "four human colon cancer cell lines: HCT116-VR (vorinostat-resistant HCT116 derivative), SW480, SW620 and LIM1215", "knock-down reagent": "siRNA pool against human genes, 40 nM siRNA pool", "time to read-out": "drug added two days after transfection, read one day later", "treatment": "vorinostat 2.5 µM on one half of each plate, etoposide 5 µM on the other half", "cell line and drug panel": "SW620 cells with etoposide", "detection": "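Caspase luminescence and viability fluorescence, each expressed relative to mock transfection and also as robust z-scores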", "direction": "caspase ratio to mock: higher = more caspase activity than mock; viability ratio to mock: higher = more live cells than mock", "active means": "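Hit means caspase ratio to mock at least 1.6, or viability ratio to mock at most 0.75; wells with strong death in the absence of drug get no call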", "calls": "active = caspase or viability hit in this panel; inactive = no change, or unhealthy well", "note": "Shown is a random part of the 106 reagents, in one setting of the screen. 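Calls are per line and drug panel including etoposide, not vorinostat-specific; gene picks needed hits in two or more extra lines with vorinostat versus etoposide.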 Entries without a mark were called inactive. Further read-outs or replicates are left out here. Reagent sequences are not shown."}
{"target": "CCNK (cyclin K)", "caspase ratio to mock": 1.29, "viability ratio to mock": 0.76}
{"target": "H1-5 (H1.5 linker histone, cluster member)", "caspase ratio to mock": "1.6 (active)", "viability ratio to mock": 0.65}
{"target": "C1orf52 (chromosome 1 open reading frame 52)", "caspase ratio to mock": 0.74, "viability ratio to mock": 0.84}
{"target": "AP5S1 (adaptor related protein complex 5 subunit sigma 1)", "caspase ratio to mock": "0.94 (active)", "viability ratio to mock": 0.64}
{"target": "LCE2A (late cornified envelope 2A)", "caspase ratio to mock": "2.58 (active)", "viability ratio to mock": 0.96}
{"target": "LBHD1 (LBH domain containing 1)", "caspase ratio to mock": 0.9, "viability ratio to mock": 0.95}
{"target": "MICALL2 (MICAL like 2)", "caspase ratio to mock": "2.26 (active)", "viability ratio to mock": 1}
{"target": "OR2W5", "caspase ratio to mock": 1.04, "viability ratio to mock": 0.98}
{"target": "NUP58 (nucleoporin 58)", "caspase ratio to mock": 0.74, "viability ratio to mock": 0.9}
{"target": "EIF4A1 (eukaryotic translation initiation factor 4A1)", "caspase ratio to mock": "0.74 (active)", "viability ratio to mock": 0.72}
